Test results published in PubChem BioAssay AID931 (National Center for Advancing Translational Sciences (NCATS), 2007).
The shares of active, inactive and inconclusive entries below differ from those in the screen. Potencies beside an inconclusive call are fits to weak or partial responses and may not hold up. Activity calls are given as the source filed them. Calls follow the shape of the dose curve; as a rule, active = well fitted cell-killing curve with a large enough effect; inconclusive = small, poorly fitted or top-dose-only effect; inactive = flat fitted curve, though single readings scatter.

Test: Confirmation and Secondary Assay for Modulators of Hemoglobin Beta Chain Splicing at IVS2 654 locus: Cytotoxicity
Conditions: HBB IVS2-654 splicing reporter cells; series mostly up to 46.1 µM
From the text: NIH Chemical Genomics Center [NCGC]
NIH Molecular Libraries Screening Centers Network [MLSCN]
PI Name: Dr. Ryszard Kole
Modulation of Alternative Splicing as Therapy
Abnormal splicing is associated with a number of diseases, including cancer and genetic diseases such as cystic fibrosis, muscular dystrophy and beta-thalassemia. Alteration of disease associated splicing patterns provides a promising target for treatment. […] Mutations in the second intron of the b-globin gene at positions 654 or 705 are clinically relevant and cause mis-splicing which results in an out of frame gene product.
Examination of toxicity of select compounds in EGFP-654 HeLa Cells
HeLa cell lines were stably transfected with a construct in which the EGFP (enhanced green fluorescent protein) cDNA was interrupted by the second intron of the beta-globin gene (IVS2-654). The ISV2 intron contains mutations which cause mis-splicing of EGFP and premature termination of EGFP which results in a nonfluorescent protein product. […] Expression of the transgene was driven by the CMV promoter. Compounds, and related structures identified in the primary screen as potential splicing modulation were examined for their effects on cell toxicity in this follow up assay .
NCGC Assay Protocol Summary:
Toxicity Screening. Freshly thawed HeLa EGFP-654 cells were seeded in 5 ul of optimem media (Invitrogen) containing 2 % fetal calf serum (Hyclone) and 1x penicillin/streptomycin (Invitrogen) at a concentration of 500 cells per well in 1536-well plates. Cells were incubated overnight at 37C in 5% CO2. The next day, cells were treated with DMSO, 500 nM antisense ISV2 654 PNA control oligo, or library compound and allowed to grow at 37C in 5% CO2 for 2 days. Cells were treated with 5 ul/well of freshly prepared ATPlite (Perkin Elmer) and cells were allowed to lyse at room temperature for 5 minutes. Luminescence was captured on an Viewlux CCD imager (Perkin Elmer) using a 15 second integration time and cell death was measured by comparing compound treatments to DMSO treatment (no cell death).
Keywords: Thalassemia, beta-thalassemia, beta-globin, EGFP, ISV2 654, ISV2 705, SSO, PNA, antisense, splicing, ATPlite, toxicity, MLSMR, MLSCN, NIH Roadmap, qHTS, NCGC
With [N-]=[N+]=Nc1nc2c(N)ncnc2n1C1OC(CO)C(O)C1O (centres undefined) the Potency was inconclusive: 10 µM [cytotoxic, partial curve]. In the case of OC[C@@H]1O[C@@H](n2cnc3cncnc32)[C@@H](O)[C@H]1O, the Potency is reported as inconclusive: 10 µM [cytotoxic, partial curve]. With Nc1nc(Cl)nc2c1ncn2[C@@H]1O[C@@H](CO)[C@@H](O)[C@H]1O the Potency was inconclusive: 31.6 µM [cytotoxic, partial curve]. For N=c1ccn2c(n1)O[C@@H]1[C@@H](O)[C@H](CO)O[C@H]12, the Potency was “inactive”.
